Measurements taken from the supplement of paper PMC10849652.
Some of the results follow.

Amino acid sequences for entries named in this document (tags omitted). A change or cut given only in a name is not applied to a line headed by its entry.
UniProt O60841: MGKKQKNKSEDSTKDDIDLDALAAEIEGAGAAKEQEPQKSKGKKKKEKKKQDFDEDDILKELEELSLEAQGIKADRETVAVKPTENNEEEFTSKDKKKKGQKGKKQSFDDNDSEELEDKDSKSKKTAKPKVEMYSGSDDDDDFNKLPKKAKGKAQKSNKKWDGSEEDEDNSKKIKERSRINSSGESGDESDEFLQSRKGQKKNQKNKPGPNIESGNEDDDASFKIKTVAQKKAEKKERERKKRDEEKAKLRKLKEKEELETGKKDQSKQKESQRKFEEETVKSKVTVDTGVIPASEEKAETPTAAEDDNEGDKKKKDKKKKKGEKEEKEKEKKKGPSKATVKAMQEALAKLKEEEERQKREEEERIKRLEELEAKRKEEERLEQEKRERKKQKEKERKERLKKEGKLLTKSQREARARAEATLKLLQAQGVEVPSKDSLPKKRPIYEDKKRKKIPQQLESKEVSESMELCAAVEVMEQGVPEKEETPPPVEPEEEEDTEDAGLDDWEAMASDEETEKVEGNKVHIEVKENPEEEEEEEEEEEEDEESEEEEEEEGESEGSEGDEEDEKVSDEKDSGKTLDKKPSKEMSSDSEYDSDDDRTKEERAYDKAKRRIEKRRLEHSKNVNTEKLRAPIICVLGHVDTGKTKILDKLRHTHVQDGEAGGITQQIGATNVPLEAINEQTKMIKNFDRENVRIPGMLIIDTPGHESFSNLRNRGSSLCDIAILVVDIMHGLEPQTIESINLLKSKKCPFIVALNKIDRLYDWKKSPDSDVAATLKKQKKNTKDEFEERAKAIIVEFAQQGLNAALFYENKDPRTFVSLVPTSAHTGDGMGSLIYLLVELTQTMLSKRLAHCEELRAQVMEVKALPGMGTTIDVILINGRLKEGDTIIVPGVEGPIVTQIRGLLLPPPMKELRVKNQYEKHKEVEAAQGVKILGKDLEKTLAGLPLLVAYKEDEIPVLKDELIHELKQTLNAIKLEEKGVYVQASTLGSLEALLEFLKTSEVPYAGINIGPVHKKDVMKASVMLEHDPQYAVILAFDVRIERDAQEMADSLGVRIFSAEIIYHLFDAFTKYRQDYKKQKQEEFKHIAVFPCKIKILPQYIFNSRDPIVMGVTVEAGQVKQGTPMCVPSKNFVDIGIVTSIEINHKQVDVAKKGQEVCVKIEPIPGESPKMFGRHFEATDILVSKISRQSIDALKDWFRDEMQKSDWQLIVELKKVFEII
UniProt Q9H4M9: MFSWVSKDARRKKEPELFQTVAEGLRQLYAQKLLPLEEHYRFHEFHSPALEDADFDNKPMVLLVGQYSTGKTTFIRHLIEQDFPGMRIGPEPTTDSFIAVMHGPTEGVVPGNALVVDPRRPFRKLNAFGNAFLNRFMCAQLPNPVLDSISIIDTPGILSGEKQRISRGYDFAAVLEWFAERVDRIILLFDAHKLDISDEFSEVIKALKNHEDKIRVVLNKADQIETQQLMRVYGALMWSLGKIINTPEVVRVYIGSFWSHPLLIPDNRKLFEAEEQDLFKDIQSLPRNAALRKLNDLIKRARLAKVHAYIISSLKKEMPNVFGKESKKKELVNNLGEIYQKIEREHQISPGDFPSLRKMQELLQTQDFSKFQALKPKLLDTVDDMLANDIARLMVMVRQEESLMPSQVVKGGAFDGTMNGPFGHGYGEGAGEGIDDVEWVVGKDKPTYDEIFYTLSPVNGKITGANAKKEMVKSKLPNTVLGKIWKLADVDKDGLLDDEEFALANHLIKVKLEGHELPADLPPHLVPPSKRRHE
UniProt P13929, whole entry, looked up: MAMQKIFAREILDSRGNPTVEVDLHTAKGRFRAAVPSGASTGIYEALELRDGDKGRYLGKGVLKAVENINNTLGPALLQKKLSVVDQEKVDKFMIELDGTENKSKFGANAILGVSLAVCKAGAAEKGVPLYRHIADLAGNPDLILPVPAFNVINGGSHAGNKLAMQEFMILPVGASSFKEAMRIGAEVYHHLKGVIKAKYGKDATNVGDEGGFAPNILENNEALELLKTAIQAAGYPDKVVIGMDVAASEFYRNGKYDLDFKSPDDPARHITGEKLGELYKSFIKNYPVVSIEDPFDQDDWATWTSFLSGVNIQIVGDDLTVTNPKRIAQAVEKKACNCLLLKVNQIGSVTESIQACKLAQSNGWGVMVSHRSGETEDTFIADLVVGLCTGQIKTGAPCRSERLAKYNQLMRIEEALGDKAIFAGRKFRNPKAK
UniProt P78344: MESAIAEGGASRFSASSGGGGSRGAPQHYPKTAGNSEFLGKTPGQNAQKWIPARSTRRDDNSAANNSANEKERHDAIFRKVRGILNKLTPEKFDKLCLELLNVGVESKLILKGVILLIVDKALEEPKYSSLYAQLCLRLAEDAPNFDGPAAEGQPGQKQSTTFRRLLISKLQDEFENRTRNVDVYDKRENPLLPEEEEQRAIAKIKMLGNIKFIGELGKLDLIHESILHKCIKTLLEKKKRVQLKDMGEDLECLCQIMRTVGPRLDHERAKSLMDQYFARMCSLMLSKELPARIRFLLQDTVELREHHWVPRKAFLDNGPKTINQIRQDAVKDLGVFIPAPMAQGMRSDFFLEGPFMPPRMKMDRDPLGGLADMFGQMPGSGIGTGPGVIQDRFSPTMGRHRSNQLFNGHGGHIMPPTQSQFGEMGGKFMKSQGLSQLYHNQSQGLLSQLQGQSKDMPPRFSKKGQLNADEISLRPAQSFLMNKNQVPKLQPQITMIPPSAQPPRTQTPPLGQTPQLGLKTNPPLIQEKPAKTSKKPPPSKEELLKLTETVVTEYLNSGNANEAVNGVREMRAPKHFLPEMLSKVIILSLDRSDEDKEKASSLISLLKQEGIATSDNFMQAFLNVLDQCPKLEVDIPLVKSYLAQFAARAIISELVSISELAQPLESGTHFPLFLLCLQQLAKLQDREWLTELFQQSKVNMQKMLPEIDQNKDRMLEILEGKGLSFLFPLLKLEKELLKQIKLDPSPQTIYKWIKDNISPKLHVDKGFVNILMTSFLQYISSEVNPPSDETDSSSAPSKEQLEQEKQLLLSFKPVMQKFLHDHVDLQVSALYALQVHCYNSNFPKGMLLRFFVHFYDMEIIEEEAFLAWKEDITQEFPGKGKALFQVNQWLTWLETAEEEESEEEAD
UniProt Q96KQ7: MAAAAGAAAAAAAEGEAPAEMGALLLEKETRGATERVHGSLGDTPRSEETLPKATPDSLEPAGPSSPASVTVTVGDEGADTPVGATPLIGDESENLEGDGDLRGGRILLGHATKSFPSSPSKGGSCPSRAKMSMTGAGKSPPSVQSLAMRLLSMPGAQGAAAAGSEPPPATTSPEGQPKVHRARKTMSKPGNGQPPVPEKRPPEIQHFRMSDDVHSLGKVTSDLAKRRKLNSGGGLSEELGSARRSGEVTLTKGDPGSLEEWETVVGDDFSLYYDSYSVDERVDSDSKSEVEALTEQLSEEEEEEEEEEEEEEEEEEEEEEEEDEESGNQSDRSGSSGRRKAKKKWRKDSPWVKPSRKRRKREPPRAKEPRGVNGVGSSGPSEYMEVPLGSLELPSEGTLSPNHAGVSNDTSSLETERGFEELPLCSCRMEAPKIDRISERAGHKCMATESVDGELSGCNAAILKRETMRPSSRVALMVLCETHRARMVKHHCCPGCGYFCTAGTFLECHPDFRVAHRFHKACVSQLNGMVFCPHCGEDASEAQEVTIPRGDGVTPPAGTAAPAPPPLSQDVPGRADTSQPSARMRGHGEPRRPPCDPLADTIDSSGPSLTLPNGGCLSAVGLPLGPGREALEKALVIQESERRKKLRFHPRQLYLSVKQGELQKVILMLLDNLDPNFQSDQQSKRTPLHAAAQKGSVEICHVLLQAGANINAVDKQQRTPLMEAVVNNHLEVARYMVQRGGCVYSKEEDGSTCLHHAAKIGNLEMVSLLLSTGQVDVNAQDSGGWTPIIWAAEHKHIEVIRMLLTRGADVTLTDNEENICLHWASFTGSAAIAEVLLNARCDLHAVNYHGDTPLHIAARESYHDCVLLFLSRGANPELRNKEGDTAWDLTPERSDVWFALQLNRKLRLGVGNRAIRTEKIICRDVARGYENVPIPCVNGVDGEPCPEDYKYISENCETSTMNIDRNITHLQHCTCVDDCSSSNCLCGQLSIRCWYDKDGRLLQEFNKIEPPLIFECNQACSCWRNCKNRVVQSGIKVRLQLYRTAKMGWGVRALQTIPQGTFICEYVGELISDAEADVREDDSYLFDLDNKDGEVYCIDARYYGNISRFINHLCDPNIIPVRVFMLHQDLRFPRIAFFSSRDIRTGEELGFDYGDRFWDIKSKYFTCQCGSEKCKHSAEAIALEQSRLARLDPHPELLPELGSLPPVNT
UniProt Q7L5Y1: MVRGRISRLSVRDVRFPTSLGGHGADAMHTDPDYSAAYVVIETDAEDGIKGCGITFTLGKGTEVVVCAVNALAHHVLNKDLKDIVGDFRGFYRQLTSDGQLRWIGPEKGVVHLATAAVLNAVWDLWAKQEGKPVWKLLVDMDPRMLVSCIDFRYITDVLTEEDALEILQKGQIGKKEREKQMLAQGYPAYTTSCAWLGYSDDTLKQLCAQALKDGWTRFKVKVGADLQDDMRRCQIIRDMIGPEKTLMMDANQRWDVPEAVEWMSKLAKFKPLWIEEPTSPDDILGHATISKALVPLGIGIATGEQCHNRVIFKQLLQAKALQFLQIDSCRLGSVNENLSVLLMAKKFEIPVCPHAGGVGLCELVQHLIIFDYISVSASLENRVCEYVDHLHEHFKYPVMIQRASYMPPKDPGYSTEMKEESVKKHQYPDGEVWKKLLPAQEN
UniProt Q9NPA0: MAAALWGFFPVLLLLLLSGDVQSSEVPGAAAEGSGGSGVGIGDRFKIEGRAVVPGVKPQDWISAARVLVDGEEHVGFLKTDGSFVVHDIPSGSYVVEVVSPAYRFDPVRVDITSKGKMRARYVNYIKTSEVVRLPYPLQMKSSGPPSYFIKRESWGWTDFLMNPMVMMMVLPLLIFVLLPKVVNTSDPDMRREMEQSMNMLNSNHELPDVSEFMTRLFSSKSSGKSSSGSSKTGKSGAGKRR
UniProt Q96EB1: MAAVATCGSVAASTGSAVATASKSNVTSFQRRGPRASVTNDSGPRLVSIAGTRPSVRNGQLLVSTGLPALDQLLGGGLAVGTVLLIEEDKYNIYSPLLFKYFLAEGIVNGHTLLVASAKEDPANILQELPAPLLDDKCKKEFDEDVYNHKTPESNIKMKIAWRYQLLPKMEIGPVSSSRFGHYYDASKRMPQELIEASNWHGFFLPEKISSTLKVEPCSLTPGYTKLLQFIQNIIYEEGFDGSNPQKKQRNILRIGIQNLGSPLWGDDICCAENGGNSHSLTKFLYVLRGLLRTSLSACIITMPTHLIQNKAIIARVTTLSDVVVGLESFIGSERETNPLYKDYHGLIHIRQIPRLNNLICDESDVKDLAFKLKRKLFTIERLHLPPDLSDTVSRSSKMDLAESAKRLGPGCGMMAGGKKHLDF
UniProt Q96C19: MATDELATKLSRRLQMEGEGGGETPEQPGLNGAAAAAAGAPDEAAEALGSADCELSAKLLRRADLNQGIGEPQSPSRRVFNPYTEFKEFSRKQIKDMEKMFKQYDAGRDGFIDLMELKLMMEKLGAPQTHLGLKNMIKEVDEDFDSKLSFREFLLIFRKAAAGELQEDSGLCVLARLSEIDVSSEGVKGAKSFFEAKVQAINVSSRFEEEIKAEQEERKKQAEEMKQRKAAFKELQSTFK
UniProt P38919, whole entry, looked up: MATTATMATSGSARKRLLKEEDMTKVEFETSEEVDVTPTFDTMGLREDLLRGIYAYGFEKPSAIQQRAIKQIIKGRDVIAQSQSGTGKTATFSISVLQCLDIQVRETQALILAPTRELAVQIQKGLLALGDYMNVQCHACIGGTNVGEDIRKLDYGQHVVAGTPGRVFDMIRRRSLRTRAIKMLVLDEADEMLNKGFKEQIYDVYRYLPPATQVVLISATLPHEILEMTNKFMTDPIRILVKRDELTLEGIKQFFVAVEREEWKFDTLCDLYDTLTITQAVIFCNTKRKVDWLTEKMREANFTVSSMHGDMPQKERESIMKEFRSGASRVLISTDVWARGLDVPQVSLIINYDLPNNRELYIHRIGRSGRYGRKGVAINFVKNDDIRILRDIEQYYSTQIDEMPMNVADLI
UniProt P06733, whole entry, looked up: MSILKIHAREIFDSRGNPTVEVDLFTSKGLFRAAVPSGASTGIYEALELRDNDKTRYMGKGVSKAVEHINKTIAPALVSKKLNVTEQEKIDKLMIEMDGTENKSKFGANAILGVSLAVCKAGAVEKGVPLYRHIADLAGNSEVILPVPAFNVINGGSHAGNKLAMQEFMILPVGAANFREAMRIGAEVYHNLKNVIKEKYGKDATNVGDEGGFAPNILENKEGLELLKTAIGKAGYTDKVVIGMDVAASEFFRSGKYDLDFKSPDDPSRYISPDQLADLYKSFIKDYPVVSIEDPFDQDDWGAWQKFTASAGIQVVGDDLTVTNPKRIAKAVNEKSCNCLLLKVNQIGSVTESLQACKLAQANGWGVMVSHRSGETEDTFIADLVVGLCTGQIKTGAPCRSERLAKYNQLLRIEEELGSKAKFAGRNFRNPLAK

Tests used:
Assay in all cases: log2 fold change, soluble protein after heating vs DMSO (PISA); higher = thermal stabilisation; K562 cells, 10 uM, 30 min; active = over 0.2 and 3.5 SD of the protein, either way, in both replicates (recomputed)
saracatinib = compound: CN1CCN(CCOc2cc(OC3CCOCC3)c3c(Nc4c(Cl)ccc5c4OCO5)ncnc3c2)CC1 [saracatinib]
Method in brief: (§1)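 Aliquots of K562 cells (2×10^6 cells/mL) treated with 10 μM compound for 30 min were heated for 3 min over 48°C-58°C. After pooling and extraction in PBS with 0.5% NP-40 at 4°C, soluble protein from a 21,000xg, 90 min spin was quantified by TMTpro 16plex LC-MS/MS with channel sums equalised. Thermal stability is expressed against control samples, from duplicates, as a log2 fold change.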

sotrastaurin = compound: CN1CCN(c2nc(C3=C(c4c[nH]c5ccccc45)C(=O)NC3=O)c3ccccc3n2)CC1 [sotrastaurin]
Method in brief: as §1

alvocidib = compound: CN1CC[C@H](c2c(O)cc(O)c3c(=O)cc(-c4ccccc4Cl)oc23)[C@H](O)C1 [alvocidib]
Method in brief: as §1

Tubastatin A = compound: CN1CCc2c(c3ccccc3n2Cc2ccc(C(=O)NO)cc2)C1 [Tubastatin A]
Method in brief: as §1

[1] = compound: CNC(=O)C1=CC=CC=C1NC2=NC(=NC=C2Cl)NC3=C(C=C(C=C3)N4CCOCC4)OC
Method in brief: as §1

defactinib = compound: CNC(=O)c1ccc(Nc2ncc(C(F)(F)F)c(NCc3nccnc3N(C)S(C)(=O)=O)n2)cc1 [defactinib]
Method in brief: as §1

rucaparib = compound: CNCc1ccc(-c2[nH]c3cc(F)cc4c3c2CCNC4=O)cc1 [rucaparib]
Method in brief: as §1

[2] = compound: CNc1nc(-c2ccc3c(N)n[nH]c3c2)cc(N2C[C@@H](C(=O)NC3CCCCC3)CC[C@H]2C)n1
Method in brief: as §1

encorafenib = compound: COC(=O)N[C@@H](C)CNc1nccc(-c2cn(C(C)C)nc2-c2cc(Cl)cc(NS(C)(=O)=O)c2F)n1 [encorafenib]
Method in brief: as §1

[3] = compound: COC(=O)[C@H](CCSC)NC(=O)C1=C(C=C(C=C1)NC[C@H](CS)N)C2=CC=CC=C2
Method in brief: as §1

[4] = compound: COC1=CC=C(C=C1)CN2C=CC3=C2C=C(C=C3)C(=O)NO
Method in brief: as §1

filanesib = compound: CON(C)C(=O)N1N=C(c2cc(F)ccc2F)S[C@@]1(CCCN)c1ccccc1 [filanesib]
Method in brief: as §1

zotarolimus = compound: CO[C@H]1C[C@@H]2CC[C@@H](C)[C@@](O)(O2)C(=O)C(=O)N2CCCC[C@H]2C(=O)O[C@H]([C@H](C)C[C@@H]2CC[C@H](n3cnnn3)[C@H](OC)C2)CC(=O)[C@H](C)/C=C(\C)[C@@H](O)[C@@H](OC)C(=O)[C@H](C)C[C@H](C)/C=C/C=C/C=C/1C [zotarolimus]
Method in brief: as §1

idasanutlin = compound: COc1cc(C(=O)O)ccc1NC(=O)[C@@H]1N[C@@H](CC(C)(C)C)[C@](C#N)(c2ccc(Cl)cc2F)[C@H]1c1cccc(Cl)c1F [idasanutlin]
Method in brief: as §1

alisertib = compound: COc1cc(Nc2ncc3c(n2)-c2ccc(Cl)cc2C(c2c(F)cccc2OC)=NC3)ccc1C(=O)O [alisertib]
Method in brief: as §1

[5] = compound: COc1cc2nc(-c3cc(F)ccc3O)nc(N[C@@H]3CNC[C@H]3C(C)(C)O)c2cc1OC
Method in brief: as §1

gefitinib = compound: COc1cc2ncnc(Nc3ccc(F)c(Cl)c3)c2cc1OCCCN1CCOCC1 [gefitinib]
Method in brief: as §1

[6] = compound: COc1cccc2cc(-c3nc([C@H]4CC[C@H](C(=O)O)CC4)n4ncnc(N)c34)[nH]c12
Method in brief: as §1

lapatinib = compound: CS(=O)(=O)CCNCc1ccc(-c2ccc3ncnc(Nc4ccc(OCc5cccc(F)c5)c(Cl)c4)c3c2)o1 [lapatinib]
Method in brief: as §1

pictilisib = compound: CS(=O)(=O)N1CCN(Cc2cc3nc(-c4cccc5[nH]ncc45)nc(N4CCOCC4)c3s2)CC1 [pictilisib]
Method in brief: as §1

Measured: log2 fold change

EIF5B (UniProt O60841)
inactive: saracatinib -0.016 | sotrastaurin -0.025 | alvocidib 0.016 | Tubastatin A 0.034 | [1] -0.018 | defactinib 0.07 | rucaparib 0.072 | [2] 0.082 | encorafenib 0.069 | [3] -0.028 | [4] -0.031 | filanesib 0.05 | zotarolimus 0.046 | idasanutlin 0.022 | alisertib -0.045 | [5] 0.024 | gefitinib -0.003 | [6] -0.082 | lapatinib 0.037 | pictilisib -0.044

EIF1AX (UniProt P47813)
inactive: saracatinib 0.007 | sotrastaurin 0.014 | alvocidib 0.019 | Tubastatin A -0.025 | [1] 0.545 | defactinib -0.003 | rucaparib -0.093 | [2] 0.011 | encorafenib 0.014 | [3] 0.003 | [4] 0.026 | filanesib -0.051 | zotarolimus 0.012 | idasanutlin -0.036 | alisertib -0.045 | [5] -0.101 | gefitinib -0.029 | [6] 0.008 | lapatinib 0.027 | pictilisib 0

EHD1 (UniProt Q9H4M9)
inactive: saracatinib 0.004 | sotrastaurin 0 | alvocidib -0.039 | Tubastatin A 0.018 | [1] -0.011 | defactinib -0.044 | rucaparib -0.045 | [2] -0.055 | encorafenib 0.01 | [3] -0.024 | [4] -0.007 | filanesib -0.063 | zotarolimus 0.016 | idasanutlin -0.074 | alisertib -0.058 | [5] 0 | gefitinib -0.017 | [6] 0.026 | lapatinib -0.021 | pictilisib -0.033

Reprinted at random: two entries already listed.
EIF1AX (UniProt P47813)
inactive: saracatinib 0.007 | sotrastaurin 0.014 | alvocidib 0.019 | Tubastatin A -0.025 | [1] 0.545 | defactinib -0.003 | rucaparib -0.093 | [2] 0.011 | encorafenib 0.014 | [3] 0.003 | [4] 0.026 | filanesib -0.051 | zotarolimus 0.012 | idasanutlin -0.036 | alisertib -0.045 | [5] -0.101 | gefitinib -0.029 | [6] 0.008 | lapatinib 0.027 | pictilisib 0

EIF5B (UniProt O60841)
inactive: saracatinib -0.016 | sotrastaurin -0.025 | alvocidib 0.016 | Tubastatin A 0.034 | [1] -0.018 | defactinib 0.07 | rucaparib 0.072 | [2] 0.082 | encorafenib 0.069 | [3] -0.028 | [4] -0.031 | filanesib 0.05 | zotarolimus 0.046 | idasanutlin 0.022 | alisertib -0.045 | [5] 0.024 | gefitinib -0.003 | [6] -0.082 | lapatinib 0.037 | pictilisib -0.044

Next entries

ELP1 (UniProt O95163)
inactive: saracatinib 0.002 | sotrastaurin 0.015 | alvocidib -0.002 | Tubastatin A -0.046 | [1] -0.041 | defactinib -0.021 | rucaparib 0.001 | [2] 0.003 | encorafenib 0.02 | [3] -0.018 | [4] -0.125 | filanesib -0.037 | zotarolimus 0.011 | idasanutlin -0.028 | alisertib -0.008 | [5] -0.004 | gefitinib 0.013 | [6] 0.045 | lapatinib 0.016 | pictilisib 0.034

ENO3 (UniProt P13929)
inactive: saracatinib 0.071 | sotrastaurin -0.058 | alvocidib -0.043 | Tubastatin A -0.009 | [1] 0.092 | defactinib 0.015 | rucaparib -0.014 | [2] -0.003 | encorafenib -0.026 | [3] 0.027 | [4] 0.173 | filanesib -0.076 | zotarolimus 0.024 | idasanutlin -0.049 | alisertib -0.043 | [5] -0.1 | gefitinib -0.064 | [6] -0.054 | lapatinib 0.058 | pictilisib -0.037

EIF4G2 (UniProt P78344)
inactive: saracatinib -0.116 | sotrastaurin -0.222 | alvocidib 0.155 | Tubastatin A 0.066 | [1] -0.109 | defactinib 0.112 | rucaparib 0.535 | [2] 0.09 | encorafenib 0 | [3] -0.147 | [4] 0.011 | filanesib 0.294 | zotarolimus 0.146 | idasanutlin 0.075 | alisertib -0.08 | [5] -0.053 | gefitinib 0.046 | [6] -0.269 | lapatinib -0.002 | pictilisib -0.137

EI24 (UniProt O14681)
inactive: saracatinib 0.064 | sotrastaurin 0.056 | alvocidib -0.016 | Tubastatin A -0.086 | [1] -0.1 | defactinib -0.072 | rucaparib 0.042 | [2] -0.063 | encorafenib 0.041 | [3] 0.055 | [4] 0.123 | filanesib -0.175 | zotarolimus -0.079 | idasanutlin -0.117 | alisertib -0.077 | [5] -0.051 | gefitinib -0.031 | [6] 0.096 | lapatinib -0.056 | pictilisib -0.058

EEF2 (UniProt P13639)
inactive: saracatinib 0.031 | sotrastaurin 0.011 | alvocidib -0.009 | Tubastatin A -0.032 | [1] -0.028 | defactinib 0.014 | rucaparib -0.033 | [2] -0.029 | encorafenib -0.013 | [3] 0.036 | [4] 0.016 | filanesib -0.066 | zotarolimus -0.013 | idasanutlin -0.025 | alisertib -0.063 | [5] 0 | gefitinib -0.004 | [6] 0.019 | lapatinib -0.025 | pictilisib -0.01

EIF2D (UniProt P41214)
inactive: saracatinib -0.245 | sotrastaurin -0.267 | alvocidib -0.002 | Tubastatin A 0.042 | [1] 0.027 | defactinib -0.012 | rucaparib 0.169 | [2] 0.044 | encorafenib 0.224 | [3] -0.112 | [4] 0.017 | filanesib 0.077 | zotarolimus 0.045 | idasanutlin -0.019 | alisertib -0.028 | [5] 0.042 | gefitinib 0.071 | [6] -0.195 | lapatinib 0.092 | pictilisib -0.015

EHMT2 (UniProt Q96KQ7)
inactive: saracatinib 0.01 | sotrastaurin -0.03 | alvocidib -0.181 | Tubastatin A 0.06 | [1] -0.03 | defactinib -0.092 | rucaparib 0.188 | [2] -0.048 | encorafenib -0.006 | [3] 0.056 | [4] 0.013 | filanesib 0.141 | zotarolimus 0.125 | idasanutlin 0.125 | alisertib -0.158 | [5] -0.153 | gefitinib -0.017 | [6] -0.04 | lapatinib -0.009 | pictilisib -0.022

ENOSF1 (UniProt Q7L5Y1)
inactive: saracatinib -0.014 | sotrastaurin 0.015 | alvocidib 0.052 | Tubastatin A 0.005 | [1] 0.003 | defactinib 0.001 | rucaparib 0.005 | [2] -0.031 | encorafenib -0.08 | [3] 0.045 | [4] -0.024 | filanesib 0.121 | zotarolimus 0.013 | idasanutlin 0.028 | alisertib 0 | [5] -0.007 | gefitinib 0.035 | [6] 0.06 | lapatinib 0 | pictilisib 0.183

EMC7 (UniProt Q9NPA0)
inactive: saracatinib -0.027 | sotrastaurin 0.033 | alvocidib -0.011 | Tubastatin A -0.014 | [1] -0.016 | defactinib 0.02 | rucaparib -0.059 | [2] 0.006 | encorafenib 0.024 | [3] -0.007 | [4] -0.097 | filanesib -0.01 | zotarolimus -0.033 | idasanutlin -0.015 | alisertib -0.03 | [5] 0.044 | gefitinib 0.013 | [6] 0.02 | lapatinib -0.031 | pictilisib 0.04

ELP4 isoform 3 (UniProt Q96EB1)
inactive: saracatinib 0.024 | sotrastaurin 0.022 | alvocidib -0.039 | Tubastatin A -0.018 | [1] -0.033 | defactinib -0.018 | rucaparib -0.047 | [2] -0.03 | encorafenib 0.009 | [3] 0.01 | [4] 0.048 | filanesib 0.004 | zotarolimus -0.022 | idasanutlin -0.011 | alisertib -0.053 | [5] -0.018 | gefitinib -0.034 | [6] 0.074 | lapatinib 0.081 | pictilisib -0.03

EFHD2 (UniProt Q96C19)
inactive: saracatinib 0.03 | sotrastaurin -0.041 | alvocidib 0.037 | Tubastatin A 0.023 | [1] 0.114 | defactinib -0.018 | rucaparib -0.083 | [2] -0.119 | encorafenib 0.07 | [3] -0.049 | [4] -0.023 | filanesib -0.215 | zotarolimus 0.061 | idasanutlin -0.051 | alisertib -0.014 | [5] 0.111 | gefitinib -0.052 | [6] -0.025 | lapatinib -0.04 | pictilisib 0.063

EIF4A3 (UniProt P38919)
inactive: saracatinib -0.041 | sotrastaurin 0.023 | alvocidib 0.037 | Tubastatin A -0.015 | [1] 0.033 | defactinib 0.006 | rucaparib -0.019 | [2] -0.011 | encorafenib 0.032 | [3] -0.001 | [4] -0.038 | filanesib 0.064 | zotarolimus -0.021 | idasanutlin -0.022 | alisertib -0.019 | [5] 0.084 | gefitinib 0.013 | [6] 0.023 | lapatinib -0.067 | pictilisib 0.131

ENO1 isoform 2 (UniProt P06733)
inactive: saracatinib -0.051 | sotrastaurin -0.139 | alvocidib 0.072 | Tubastatin A 0.202 | [1] -0.087 | defactinib -0.029 | rucaparib 0.075 | [2] 0.025 | encorafenib -0.129 | [3] -0.01 | [4] 0.28 | filanesib -0.137 | zotarolimus -0.045 | idasanutlin 0.042 | alisertib -0.001 | [5] 0.162 | gefitinib 0.001 | [6] 0.042 | lapatinib -0.085 | pictilisib 0.102
